At least one peptide structure holds a part that was inferred or is arguable (an end, a ring closure or a residue). Numbered stars: 1 amine (or outer) side, 2 acyl side, 3 side chain; on linkers, the order of the positions; unused ones are H or OH. Square brackets hold non-standard residues; d marks the D form. Peptide text beside a SMILES is read from it. dLys(Nε-C(NCN)NHBu) = CCCCNC(=NC#N)NCCCC[C@@H](N)C(=O)O; X17 = CCCCNC(=NC#N)NCCC[C@H](N[*:1])C(=O)[*:2]; dPhe(4-Cl) = N[C@H](Cc1ccc(Cl)cc1)C(=O)O; d2Nal = N[C@H](Cc1ccc2ccccc2c1)C(=O)O; Lys(iPr) = CC(C)NCCCC[C@H](N)C(=O)O; d3Pal = N[C@H](Cc1cccnc1)C(=O)O
Tested on: mature female Sprague-Dawley rats
Experiment: in vivo test of effectiveness to prevent ovulation in female rats
Parameters: species or system rat
Conditions: injected at about noon on the day of proestrus, rats ovulating/rats treated

Row | SMILES | Rats Ovulating (dosage 2.5 micrograms) | Rats Ovulating (dosage 1.0 micrograms) | Rats Ovulating (dosage 5.0 micrograms) | Rats Ovulating (dosage 15 micrograms)
1 | CCCCNC(=NC#N)NCCC[C@H](NC(=O)[C@H](CO)NC(=O)[C@@H](Cc1cccnc1)NC(=O)[C@@H](Cc1ccc(Cl)cc1)NC(=O)[C@@H](Cc1ccc2ccccc2c1)NC(C)=O)C(=O)N[C@H](Cc1ccc2ccccc2c1)C(=O)N[C@@H](CC(C)C)C(=O)N[C@@H](CCCCNC(C)C)C(=O)N1CCC[C@H]1C(=O)N[C@H](C)C(N)=O [Peptide 104] (Ac-[d2Nal][dPhe(4-Cl)][d3Pal]S[X17][d2Nal]L[Lys(iPr)]P[dA]-NH2) | 6/8 | – | – | –
2 | CCCCNC(=NC#N)NCCCC[C@@H](NC(=O)[C@@H](Cc1ccc(Cl)cc1)NC(=O)[C@@H](Cc1ccc2ccccc2c1)NC(C)=O)C(=O)N[C@@H](CO)C(=O)N[C@@H](Cc1ccc(O)cc1)C(=O)N[C@H](Cc1cccnc1)C(=O)N[C@@H](CC(C)C)C(=O)N[C@@H](CCCCNC(C)C)C(=O)N1CCC[C@H]1C(=O)N[C@H](C)C(N)=O [Peptide 119] (Ac-[d2Nal][dPhe(4-Cl)][dLys(Nε-C(NCN)NHBu)]SY[d3Pal]L[Lys(iPr)]P[dA]-NH2) | 0/7 | 2/10 | – | –
3 | CCCCNC(=NC#N)NCCCC[C@@H](NC(=O)[C@@H](Cc1ccc(Cl)cc1)NC(=O)[C@@H](Cc1ccc2ccccc2c1)NC(C)=O)C(=O)N[C@@H](CO)C(=O)N[C@@H](Cc1ccc(O)cc1)C(=O)N[C@H](Cc1ccc2ccccc2c1)C(=O)N[C@@H](CC(C)C)C(=O)N[C@@H](CCCCNC(C)C)C(=O)N1CCC[C@H]1C(=O)N[C@H](C)C(N)=O [Peptide 118] (Ac-[d2Nal][dPhe(4-Cl)][dLys(Nε-C(NCN)NHBu)]SY[d2Nal]L[Lys(iPr)]P[dA]-NH2) | – | – | 5/5 | 4/5

Source: patent publication US5296468A, “GnRH analogs” (The Salk Institute for Biological Studies, priority 1993, dated 1994)
